Assay results as given in patent publication US20140213575A1, “6H-Thieno[3,2-f][1,2,4]triazolo[4,3-a][1,4]diazepines” (BAYER INTELLECTUAL PROPERTY GMBH, priority 2011, published 2014).
Some entries share one result that the patent states for a list of compounds.

Assay: In-vivo tolerability in the mouse
Set-up: species or system female NMRI nude mice
Settings: in all groups (all doses, once or twice daily)
Procedure: The substances were formulated in NMP/PEG300 (1/9 V/V). They were administered orally, in an amount of 10 ml/kg, once or twice daily for a period of 5 to 7 days to female NMRI nude mice (6-8 weeks old; 3 animals per group). Body weight and mortality of the mice were monitored daily up to the end of the study. Toxicity was defined as follows: ≧10% substance-induced deaths or ≧20% weight loss.

Compound	body weight loss
Cc1sc2c(c1C)C(c1ccc(Cl)cc1)=N[C@@H](CC(=O)N1C3CCC1CC(=O)C3)c1nnc(C)n1-2 [Example 1, 8-{2-[(S)-4-(4-Chlorophenyl)-2,3,9-trimethyl-6H-thieno[3,2-f][1,2,4]triazolo[4,3-a][1,4]diazepin-6-yl]acetyl}-8-azabicyclo[3.2.1]octan-3-one]	less than 3%
Cc1sc2c(c1C)C(c1ccc(Cl)cc1)=N[C@@H](CC(=O)N1CC3(COC3)C1)c1nnc(C)n1-2 [Example 2, 2-[(S)-4-(4-Chlorophenyl)-2,3,9-trimethyl-6H-thieno[3,2-f][1,2,4]triazolo[4,3-a][1,4]diazepin-6-yl]-1-(2-oxa-6-azaspiro[3.3]hept-6-yl)ethan-1-one]	less than 3%
